Measurements reported in PubChem BioAssay AID1159578 (Peter MacCallum Cancer Centre, 2015)

Screen: 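siRNA pools altering how lymphatic endothelial cells close a scratch wound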 (primary screen)
Cell system: human lymphatic endothelial cells
Reagents: siRNA pool against human genes, 40 nM
Timing: 48 h after transfection
Measured: 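High-content imaging of dye-stained cells in a scratch assay measures filled wound area and nuclei per well; duplicate means given as ratio to mock and robust z-score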
Scale: migration robust z-score: higher = faster migration into the scratch; migration relative to mock: higher = more scratch area covered than mock; nuclei per well: higher = more cells in the well
Hit rule: 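Pools averaging fewer than 3300 nuclei are never called; remaining pools count as changed when migration robust z lies outside -2 to 2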
Meaning of the calls: active = migration changed; inactive = no migration change, or too few cells
The whole screen tested about 18,000 reagents; this is a part drawn at random. About 1,030 of them (5.7%) count as active. 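Inactive calls also include pools with fewer than 3300 nuclei, whose migration was not assessed.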 Raw values vary from plate to plate and are shown uncorrected. Entries without a mark were called inactive.

target gene | migration robust z-score | migration class with cell-count check | migration relative to mock | nuclei per well, duplicate mean
TRADD (TNFRSF1A associated via death domain) | 0.34 | migration z between -2 and 2; enough cells | 0.87 | 5518
KATNIP (katanin interacting protein) | -2.82 (active) | migration z below -2; enough cells | 0.16 | 4766
PSMG1 (proteasome assembly chaperone 1) | 0.14 | migration z between -2 and 2; enough cells | 0.92 | 5898
GCAT (glycine C-acetyltransferase) | -0.68 | migration z between -2 and 2; enough cells | 0.68 | 4220
RD3 (RD3 regulator of GUCY2D) | -0.07 | migration z between -2 and 2; enough cells | 0.87 | 4516
THEM6 (thioesterase superfamily member 6) | 0.9 | migration z between -2 and 2; enough cells | 1.12 | 6348
B3GAT3 (beta-1,3-glucuronyltransferase 3) | -0.1 | migration z between -2 and 2; enough cells | 0.78 | 5572
C21orf58 (chromosome 21 open reading frame 58) | 0.16 | migration z between -2 and 2; enough cells | 0.92 | 5242
STPG1 (sperm tail PG-rich repeat containing 1) | -0.86 | migration z between -2 and 2; enough cells | 0.66 | 4212
DOCK3 (dedicator of cytokinesis 3) | 0.86 | migration z between -2 and 2; enough cells | 1.11 | 5830
OR51A2 (olfactory receptor family 51 subfamily A member 2) | -1.5 | migration z between -2 and 2; enough cells | 0.5 | 4476
ZNF385A (zinc finger protein 385A) | -0.11 | migration z between -2 and 2; enough cells | 0.86 | 6564
PCSK2 (proprotein convertase subtilisin/kexin type 2) | -0.1 | migration z between -2 and 2; enough cells | 0.78 | 4496
SPP1 (secreted phosphoprotein 1) | -0.74 | migration z between -2 and 2; enough cells | 0.7 | 4122
PRR19 (proline rich 19) | -0.06 | migration z between -2 and 2; enough cells | 0.87 | 5815
ZNF707 (zinc finger protein 707) | 0.54 | migration z between -2 and 2; enough cells | 1.02 | 6672
MDFIC (MyoD family inhibitor domain containing) | -1.19 | migration z between -2 and 2; enough cells | 0.57 | 6136
SND1 (staphylococcal nuclease and tudor domain containing 1) | 0.23 | migration z between -2 and 2; enough cells | 0.85 | 6826
ITIH1 (inter-alpha-trypsin inhibitor heavy chain 1) | -0.32 | migration z between -2 and 2; enough cells | 0.8 | 6744
WDR72 (WD repeat domain 72) | -0.7 | migration z between -2 and 2; enough cells | 0.7 | 5089
PPP6C (protein phosphatase 6 catalytic subunit) | -0.64 | migration z between -2 and 2; enough cells | 0.68 | 5978
NDUFA1 (NADH:ubiquinone oxidoreductase subunit A1) | -2 | under 3300 nuclei; migration not judged | 0.42 | 3153
OR8D1 (olfactory receptor family 8 subfamily D member 1) | -1.48 | migration z between -2 and 2; enough cells | 0.5 | 5824
TULP4 (TUB like protein 4) | -0.13 | migration z between -2 and 2; enough cells | 0.78 | 5629
TAF13 (TATA-box binding protein associated factor 13) | 0.8 | migration z between -2 and 2; enough cells | 1.09 | 7108
PPM1J (protein phosphatase, Mg2+/Mn2+ dependent 1J) | -0.31 | migration z between -2 and 2; enough cells | 0.74 | 4860
OR4B1 (olfactory receptor family 4 subfamily B member 1) | 1.17 | migration z between -2 and 2; enough cells | 1.19 | 6874
MYLK (myosin light chain kinase) | 0.24 | migration z between -2 and 2; enough cells | 0.85 | 4437
SLCO2A1 | 0.94 | migration z between -2 and 2; enough cells | 0.98 | 6610
TPBG (trophoblast glycoprotein) | 0.13 | migration z between -2 and 2; enough cells | 0.92 | 5586

Continued (3 carried over from the part before).
target gene | migration robust z-score | migration class with cell-count check | migration relative to mock | nuclei per well, duplicate mean
MYLK (myosin light chain kinase) | 0.24 | migration z between -2 and 2; enough cells | 0.85 | 4437
SLCO2A1 | 0.94 | migration z between -2 and 2; enough cells | 0.98 | 6610
TPBG (trophoblast glycoprotein) | 0.13 | migration z between -2 and 2; enough cells | 0.92 | 5586
HOOK3 (hook microtubule tethering protein 3) | -0.39 | migration z between -2 and 2; enough cells | 0.78 | 6524
ECHDC2 (enoyl-CoA hydratase domain containing 2) | 1.36 | migration z between -2 and 2; enough cells | 1.23 | 5744
VAC14 (VAC14 component of PIKFYVE complex) | 0.33 | migration z between -2 and 2; enough cells | 0.97 | 4990
DDIT4 (DNA damage inducible transcript 4) | 0.51 | migration z between -2 and 2; enough cells | 1.01 | 6790
NUP88 (nucleoporin 88) | 2.01 (active) | migration z above 2; enough cells | 1.41 | 5830
SYP (synaptophysin) | 0.62 | migration z between -2 and 2; enough cells | 1.05 | 5202
ERN2 (endoplasmic reticulum to nucleus signaling 2) | -0.68 | migration z between -2 and 2; enough cells | 0.68 | 4415
SLC38A5 | -0.19 | migration z between -2 and 2; enough cells | 0.84 | 5753
TIPE2 (TNF alpha induced protein 8 like 2) | -2.14 (active) | migration z below -2; enough cells | 0.34 | 4994
ACO2 (aconitase 2) | 0.73 | migration z between -2 and 2; enough cells | 0.94 | 6603
MRPL9 (mitochondrial ribosomal protein L9) | 2.02 (active) | migration z above 2; enough cells | 1.19 | 5291
ATP2A1 | -0.6 | migration z between -2 and 2; enough cells | 0.69 | 5479
POU4F3 (POU class 4 homeobox 3) | -0.06 | migration z between -2 and 2; enough cells | 0.87 | 7891
TBC1D9B (TBC1 domain family member 9B) | -1.46 | migration z between -2 and 2; enough cells | 0.51 | 6066
SIRAL2 (SIR2 antiphage like 2) | -0.34 | migration z between -2 and 2; enough cells | 0.8 | 6118
FANCC (FA complementation group C) | 0.52 | migration z between -2 and 2; enough cells | 0.9 | 6306
CAB39 (calcium binding protein 39) | 0.14 | migration z between -2 and 2; enough cells | 0.92 | 5270
RPL34 (ribosomal protein L34) | 0.6 | migration z between -2 and 2; enough cells | 1.04 | 4271
TWIST2 (twist family bHLH transcription factor 2) | 0.83 | migration z between -2 and 2; enough cells | 1.1 | 5445
ASPG (asparaginase) | 0.52 | migration z between -2 and 2; enough cells | 0.9 | 6074
SERPINA9 (serpin family A member 9) | 0.94 | migration z between -2 and 2; enough cells | 1.13 | 6031
RTL4 (retrotransposon Gag like 4) | 1.34 | migration z between -2 and 2; enough cells | 1.23 | 6205
PCDH11Y (protocadherin 11 Y-linked) | 0.27 | migration z between -2 and 2; enough cells | 0.96 | 6048
TRMT2A (tRNA methyltransferase 2A) | -1.14 | migration z between -2 and 2; enough cells | 0.6 | 6334
FKBP9 (FKBP prolyl isomerase 9) | 0.13 | migration z between -2 and 2; enough cells | 0.83 | 6228
HOXC11 (homeobox C11) | -0.24 | migration z between -2 and 2; enough cells | 0.76 | 6110
MRGPRX1 (MAS related GPR family member X1) | 0.13 | migration z between -2 and 2; enough cells | 0.83 | 7334
NAE1 (NEDD8 activating enzyme E1 subunit 1) | -0.1 | migration z between -2 and 2; enough cells | 0.78 | 6268
ANAPC4 (anaphase promoting complex subunit 4) | -1.12 | migration z between -2 and 2; enough cells | 0.59 | 5144
MRGBP (MRG domain binding protein) | 0.16 | migration z between -2 and 2; enough cells | 0.92 | 5321
LINC00303 (long independently transcribed non-coding RNA 303) | -0.2 | migration z between -2 and 2; enough cells | 0.84 | 5026
ZNF572 (zinc finger protein 572) | 0.88 | migration z between -2 and 2; enough cells | 1.11 | 5815
ABHD10 (abhydrolase domain containing 10, depalmitoylase) | 1.56 | migration z between -2 and 2; enough cells | 1.29 | 6532
HSD17B1 (hydroxysteroid 17-beta dehydrogenase 1) | 0.96 | migration z between -2 and 2; enough cells | 0.99 | 7629
PPAN (peter pan homolog) | 0.55 | migration z between -2 and 2; enough cells | 0.91 | 6288
SPMIP6 (sperm microtubule inner protein 6) | 0.54 | migration z between -2 and 2; enough cells | 1.02 | 5634
DPP3 (dipeptidyl peptidase 3) | 2.08 (active) | migration z above 2; enough cells | 1.2 | 5256
LTB4R (leukotriene B4 receptor) | -1.74 | migration z between -2 and 2; enough cells | 0.47 | 5015
LIMS2 (LIM zinc finger domain containing 2) | -1.12 | migration z between -2 and 2; enough cells | 0.6 | 3548
RPH3AL (rabphilin 3A like (without C2 domains)) | -0.44 | migration z between -2 and 2; enough cells | 0.77 | 7435
STARD4 (StAR related lipid transfer domain containing 4) | 0.82 | migration z between -2 and 2; enough cells | 1.1 | 5184
BPIFA3 (BPI fold containing family A member 3) | 0.75 | migration z between -2 and 2; enough cells | 1.08 | 6982
DENND1A (DENN domain containing 1A) | 0.28 | migration z between -2 and 2; enough cells | 0.96 | 5212
